Data from US20260079169A1, “VOLATILE ORGANIC COMPOUNDS AS MARKERS FOR CELLULAR COMMUNICATION” (Technion Research and Development Foundation Limited, priority 2020, published 2026).
No dose or concentration is given here for some results.

Assays:
[1] = test system: A549, H1299, H1975 human lung cancer lines and BEAS-2B normal cell line, each cultured alone; assay: VOCs headspace analysis (ITEX GC-MS) of mono-culture groups (Format-1), bulk cell samples 1×10^4 cells; assay type: cell-based; details: bulk 1 × 10^4 cell; for VOC area under curve (AUC) normalized by STD AUC, A: A: BEAS-2B mono-culture headspace; for VOC area under curve (AUC) normalized by STD AUC, B: B: A549 mono-culture headspace; for VOC area under curve (AUC) normalized by STD AUC, C: C: H1299 mono-culture headspace; for VOC area under curve (AUC) normalized by STD AUC, D: D: H1975 mono-culture headspace
[2] = test system: different-cell pairs of BEAS-2B, A549, H1299, H1975 without physical contact under a mutual headspace; assay: VOCs headspace analysis (ITEX GC-MS) of different-cell pair co-culture headspace groups (Format-3), bulk cell samples; assay type: cell-based, human; details: bulk 1 × 10^4 cell; for VOC area under curve (AUC) normalized by STD AUC, B + C: A549 + H1299; for VOC area under curve (AUC) normalized by STD AUC, B + D: A549 + H1975; for VOC area under curve (AUC) normalized by STD AUC, A + B: BEAS-2B + A549; for VOC area under curve (AUC) normalized by STD AUC, A + C: BEAS-2B + H1299; for VOC area under curve (AUC) normalized by STD AUC, A + D: BEAS-2B + H1975; for VOC area under curve (AUC) normalized by STD AUC, C + D: H1299 + H1975

| Structure (SMILES) | VOC level in headspace, area under curve (AUC) normalized by STD AUC ([1]; A (BEAS-2B) mono-culture) | VOC level in headspace, area under curve (AUC) normalized by STD AUC ([1]; B (A549) mono-culture) | VOC level in headspace, area under curve (AUC) normalized by STD AUC ([1]; C (H1299) mono-culture) | VOC level in headspace, area under curve (AUC) normalized by STD AUC ([1]; D (H1975) mono-culture) | VOC level in headspace, area under curve (AUC) normalized by STD AUC ([2]; A + B (BEAS-2B + A549)) | VOC level in headspace, area under curve (AUC) normalized by STD AUC ([2]; A + C (BEAS-2B + H1299)) | VOC level in headspace, area under curve (AUC) normalized by STD AUC ([2]; A + D (BEAS-2B + H1975)) | VOC level in headspace, area under curve (AUC) normalized by STD AUC ([2]; B + C (A549 + H1299)) | VOC level in headspace, area under curve (AUC) normalized by STD AUC ([2]; B + D (A549 + H1975)) | VOC level in headspace, area under curve (AUC) normalized by STD AUC ([2]; C + D (H1299 + H1975)) | VOC area under curve (AUC) normalized by STD AUC, A [1] | VOC area under curve (AUC) normalized by STD AUC, B [1] | VOC area under curve (AUC) normalized by STD AUC, C [1] | VOC area under curve (AUC) normalized by STD AUC, D [1] | VOC area under curve (AUC) normalized by STD AUC, B + C [2] | VOC area under curve (AUC) normalized by STD AUC, B + D [2] | VOC area under curve (AUC) normalized by STD AUC, A + B [2] | VOC area under curve (AUC) normalized by STD AUC, A + C [2] | VOC area under curve (AUC) normalized by STD AUC, A + D [2] | VOC area under curve (AUC) normalized by STD AUC, C + D [2] |
| --- | --- | --- | --- | --- | --- | --- | --- | --- | --- | --- | --- | --- | --- | --- | --- | --- | --- | --- | --- | --- |
| CCCCC(C)=O [VOC93] | 0 | 7.399 | 0 | 8.535 | 6.612 | 0 | 6.874 | 3.654 | 8.676 | 1.978 |  |  |  |  |  |  |  |  |  |  |
| CCC(C)=O [VOC94] | 3.925 | 8.126 | 0 | 0 | 8.48 | 2.85 | 1.913 | 2.528 | 2.08 | 0 |  |  |  |  |  |  |  |  |  |  |
| CC(C)CO [VOC95] | 4.954 | 0 | 0 | 6.944 | 5.494 | 0.3614 | 0 | 0 | 7.822 | 0.462 |  |  |  |  |  |  |  |  |  |  |
| CCCCCCC(C)=O [VOC96] | 0 | 0 | 7.2483 | 0 | 0 | 5.283 | 0 | 1.514 | 0 | 2.778 |  |  |  |  |  |  |  |  |  |  |
| CC(=O)CCC(C)=O [VOC97] |  |  |  |  |  |  |  |  |  |  | 0 | 5.359 | 4.1686 | 0 | 6.764 | 3.462 | 3.868 | 0 | 0 | 0 |
| CCCCO [VOC98] |  |  |  |  |  |  |  |  |  |  | 0 | 0 | 0 | 6.103 | 0 | 5.359 | 0 | 0 | 4.894 | 5.866 |
| C=C(C)CCC(C)CC (centres unmarked) [VOC99] |  |  |  |  |  |  |  |  |  |  | 5.971 | 8.012 | 0 | 0 | 2.047 | 0 | 8.012 | 2.549 | 6.62 | 0 |
| CC(C)(O)CCC(C)(C)O [VOC100] |  |  |  |  |  |  |  |  |  |  | 0 | 7.882 | 7.3418 | 6.549 | 7.283 | 6.345 | 3.9 | 5.457 | 5.288 | 6.371 |
